In PMC6793842:
Results are given in words; binding and its absence hold for the method and conditions named. Some binding calls cover weakened binding; strength is not graded here.

By UniProt entry, the sequences of proteins in these tests, tags left out. Residues count along the entry.
UniProt Q8ILP3, residues 23-945: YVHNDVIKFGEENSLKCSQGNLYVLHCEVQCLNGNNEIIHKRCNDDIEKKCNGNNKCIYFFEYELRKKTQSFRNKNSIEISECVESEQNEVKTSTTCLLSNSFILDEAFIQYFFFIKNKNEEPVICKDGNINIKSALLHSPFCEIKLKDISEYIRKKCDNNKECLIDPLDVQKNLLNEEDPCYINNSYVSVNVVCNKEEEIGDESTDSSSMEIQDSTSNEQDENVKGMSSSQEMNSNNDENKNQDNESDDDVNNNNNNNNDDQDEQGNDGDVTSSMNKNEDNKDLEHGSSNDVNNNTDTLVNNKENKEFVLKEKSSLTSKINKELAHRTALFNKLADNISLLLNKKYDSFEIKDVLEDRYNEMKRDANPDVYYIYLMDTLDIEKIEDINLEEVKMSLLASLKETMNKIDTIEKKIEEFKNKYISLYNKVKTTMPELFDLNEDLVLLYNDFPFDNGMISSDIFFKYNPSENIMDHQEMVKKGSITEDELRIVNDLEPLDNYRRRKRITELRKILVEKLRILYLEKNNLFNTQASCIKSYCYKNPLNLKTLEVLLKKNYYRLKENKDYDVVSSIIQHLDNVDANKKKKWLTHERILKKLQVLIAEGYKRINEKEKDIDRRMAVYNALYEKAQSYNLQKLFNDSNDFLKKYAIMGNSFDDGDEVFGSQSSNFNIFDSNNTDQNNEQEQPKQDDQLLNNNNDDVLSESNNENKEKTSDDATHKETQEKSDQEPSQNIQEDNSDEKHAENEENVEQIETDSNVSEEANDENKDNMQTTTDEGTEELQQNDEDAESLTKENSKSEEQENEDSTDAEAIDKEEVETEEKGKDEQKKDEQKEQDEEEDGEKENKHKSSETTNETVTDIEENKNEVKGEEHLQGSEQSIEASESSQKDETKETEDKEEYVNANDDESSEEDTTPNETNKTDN
UniProt Q8IFM5, residues 25-526: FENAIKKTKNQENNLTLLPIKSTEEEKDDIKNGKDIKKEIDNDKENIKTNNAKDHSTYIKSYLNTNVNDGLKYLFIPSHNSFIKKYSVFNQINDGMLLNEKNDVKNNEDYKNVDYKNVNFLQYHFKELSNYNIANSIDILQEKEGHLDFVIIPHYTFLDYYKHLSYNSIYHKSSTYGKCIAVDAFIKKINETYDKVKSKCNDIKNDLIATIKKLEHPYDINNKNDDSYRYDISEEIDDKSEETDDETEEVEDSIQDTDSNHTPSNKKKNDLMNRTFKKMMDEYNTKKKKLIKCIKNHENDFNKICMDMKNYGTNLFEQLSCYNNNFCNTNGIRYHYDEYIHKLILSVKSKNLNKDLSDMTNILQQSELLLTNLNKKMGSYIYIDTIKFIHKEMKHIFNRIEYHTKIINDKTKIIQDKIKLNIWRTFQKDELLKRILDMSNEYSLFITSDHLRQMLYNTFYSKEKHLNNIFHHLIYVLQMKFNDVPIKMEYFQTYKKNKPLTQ

Target: P. falciparum P113, biotinylated bait (P. falciparum) (UniProt Q8ILP3)
Assay: AVEXIS (avidity-based extracellular interaction screening)

P. falciparum RH5, AVEXIS prey (from UniProt Q8IFM5 25-526) (ligand)
binding: binds
